Reference: patent publication US7439266B2, “Malononitrile compound and use thereof” (Sumitomo Chemical Company, Limited, priority 2002, dated 2008)
Some entries share one result that the patent states for a list of compounds.

The compounds below were run on Nilaparvata lugens (assay: Test Example 2: spray on rice plants, Nilaparvata lugens larvae, 500 ppm). Details: sprayed 20 ml/cup on rice plants, thirty first-instar larvae released, sixth day after release, 25° C.
Assay type: in vivo
For `CC(C)(C)OC(=O)CC(C#N)(C#N)CCCCl` [present invention compound (24), 2-(tert-butoxycarbonylmethyl)-2-(3-chloropropyl)malononitrile], the “number of parasitic Nilaparvata lugens” value was no more than 3. In the case of `CC(CCl)CC(C#N)(C#N)CC(=O)OC(C)(C)C` (centres unmarked) [present invention compound (25), 2-(tert-butoxycarbonylmethyl)-2-(3-chloro-2-methylpropyl)malononitrile], the “number of parasitic Nilaparvata lugens” value was no more than 3. With `CCCCC(C#N)(C#N)CC(=O)OC(C)(C)C` [present invention compound (28), 2-(tert-butoxycarbonylmethyl)-2-butylmalononitrile] the “number of parasitic Nilaparvata lugens” value was no more than 3. In the case of `CCCCCC(C#N)(C#N)CC(=O)OC(C)(C)C` [present invention compound (29), 2-(tert-butoxycarbonylmethyl)-2-pentylmalononitrile], the “number of parasitic Nilaparvata lugens” value was no more than 3. For `CC(C)CCC(C#N)(C#N)CC(=O)OC(C)(C)C` [present invention compound (31), 2-(tert-butoxycarbonylmethyl)-2-(3-methylbutyl)malononitrile], the “number of parasitic Nilaparvata lugens” value was no more than 3. In the case of `CC(C)(C)OC(=O)CC(C#N)(C#N)CC1CC1` [present invention compound (34), 2-(tert-butoxycarbonylmethyl)-2-(cyclopropylmethyl)malononitrile], the “number of parasitic Nilaparvata lugens” value was no more than 3. For `CC(C)(C)OC(=O)CC(C#N)(C#N)CC1CC1(Cl)Cl` (centres unmarked) [present invention compound (35), 2-(tert-butoxycarbonylmethyl)-2-[(2,2-dichlorocyclopropyl)methyl]malononitrile], the “number of parasitic Nilaparvata lugens” value was no more than 3. With `CCCC(C#N)(C#N)CC(=O)OC(C)(C)C` [present invention compound (37), 2-(tert-butoxycarbonylmethyl)-2-propylmalononitrile] the “number of parasitic Nilaparvata lugens” value was no more than 3. For `CC(C)(C)OC(=O)CC(C#N)(C#N)CCC(F)=C(F)F` [present invention compound (40), 2-(tert-butoxycarbonylmethyl)-2-(3,4,4-trifluoro-3-butenyl)malononitrile], the “number of parasitic Nilaparvata lugens” value was no more than 3. `CC(C)(C)OC(=O)CC(C#N)(C#N)CCCC(F)(F)F` [present invention compound (51), 2-(tert-butoxycarbonylmethyl)-2-(4,4,4-trifluorobutyl)malononitrile] was tested, and the “number of parasitic Nilaparvata lugens” value was no more than 3. For `CC(C)(C)COC(=O)CC(C#N)(C#N)CCC(F)(F)F` [present invention compound (53), 2-[(2,2-dimethylpropoxy)carbonylmethyl]-2-(3,3,3-trifluoropropyl)malononitrile], the “number of parasitic Nilaparvata lugens” value was no more than 3. With `CC(CCl)OC(=O)CC(C#N)(C#N)CCC(F)(F)F` (centres unmarked) [present invention compound (55), 2-[(2-chloro-1-methylethoxy)carbonylmethyl]-2-(3,3,3-trifluoropropyl)malononitrile] the “number of parasitic Nilaparvata lugens” value was no more than 3. With `C#CC(C)(C)OC(=O)C(C)C(C#N)(C#N)CCC(F)(F)F` (centres unmarked) [present invention compound (64), 2-(1-[(1,1-dimethyl-2-propynyl)oxycarbonyl]ethyl)-2-(3,3,3-trifluoropropyl)malononitrile] the “number of parasitic Nilaparvata lugens” value was no more than 3. With `C#CC(C)(CC)OC(=O)C(C)C(C#N)(C#N)CCC(F)(F)F` (centres unmarked) [present invention compound (65), 2-(1-[(1-ethyl-1-methyl-2-propynyl)oxycarbonyl]ethyl)-2-(3,3,3-trifluoropropyl)malononitrile] the “number of parasitic Nilaparvata lugens” value was no more than 3. With `CC(C(=O)OC(C)(C)C#N)C(C#N)(C#N)CCC(F)(F)F` (centres unmarked) [present invention compound (66), 2-(1-[(1-cyano-1-methylethoxy)carbonyl]ethyl)-2-(3,3,3-trifluoropropyl)malononitrile] the “number of parasitic Nilaparvata lugens” value was no more than 3. `CC(C)CC(C)OC(=O)C(C)C(C#N)(C#N)CCC(F)(F)F` (centres unmarked) [present invention compound (69), 2-(1-[(1,3-dimethylbutoxy)carbonyl]ethyl)-2-(3,3,3-trifluoropropyl)malononitrile] was tested, and the “number of parasitic Nilaparvata lugens” value was no more than 3. For `CC(C(=O)OCC(C)(C)C)C(C#N)(C#N)CCC(F)(F)F` (centres unmarked) [present invention compound (70), 2-(1-[(2,2dimethylpropoxy)carbonyl]ethyl)-2-(3,3,3-trifluoropropyl)malononitrile], the “number of parasitic Nilaparvata lugens” value was no more than 3.
